The values that follow come from publication PMC7181607.

These are yes or no findings as the source states them, for the method shown. Binding seen in cells or lysates may run through a third protein. Some binding calls cover weakened binding; strength is not graded here. Sequences can lack the tags named with a protein.

The target in the assay is endogenous p53 (human (endogenous in U2OS, A375, HeLa)) (UniProt P04637). As to the kind of experiment: proximity ligation; Duolink in situ PLA in fixed U2OS cells transfected with IL-1α/EGFP or IL-1αNTP/EGFP; anti-GFP and anti-p53 (CM-1) antibodies; IL-1α/EGFP cells treated with 20 μM roscovitine for 24 hours.

B1: IL-1αNTP/EGFP fusion protein (domain or fragment, UniProt P01583 1-112)
chain: MAKVPDMFEDLKNCYSENEEDSSSIDHLSLNQKSFYHVSYGPLHEGCMDQSVSLSISETSKTSKLTFKESMVVVATNGKVLKKRRLSLSQSITDDDLEAIANDSEEEIIKPR
For the molecule B1, the binding result is listed as “binds”.
